This is an account of results in article PMC3584136.

Sequences of proteins named here, by UniProt entry; tags and fusion partners are left off.
UniProt O35433: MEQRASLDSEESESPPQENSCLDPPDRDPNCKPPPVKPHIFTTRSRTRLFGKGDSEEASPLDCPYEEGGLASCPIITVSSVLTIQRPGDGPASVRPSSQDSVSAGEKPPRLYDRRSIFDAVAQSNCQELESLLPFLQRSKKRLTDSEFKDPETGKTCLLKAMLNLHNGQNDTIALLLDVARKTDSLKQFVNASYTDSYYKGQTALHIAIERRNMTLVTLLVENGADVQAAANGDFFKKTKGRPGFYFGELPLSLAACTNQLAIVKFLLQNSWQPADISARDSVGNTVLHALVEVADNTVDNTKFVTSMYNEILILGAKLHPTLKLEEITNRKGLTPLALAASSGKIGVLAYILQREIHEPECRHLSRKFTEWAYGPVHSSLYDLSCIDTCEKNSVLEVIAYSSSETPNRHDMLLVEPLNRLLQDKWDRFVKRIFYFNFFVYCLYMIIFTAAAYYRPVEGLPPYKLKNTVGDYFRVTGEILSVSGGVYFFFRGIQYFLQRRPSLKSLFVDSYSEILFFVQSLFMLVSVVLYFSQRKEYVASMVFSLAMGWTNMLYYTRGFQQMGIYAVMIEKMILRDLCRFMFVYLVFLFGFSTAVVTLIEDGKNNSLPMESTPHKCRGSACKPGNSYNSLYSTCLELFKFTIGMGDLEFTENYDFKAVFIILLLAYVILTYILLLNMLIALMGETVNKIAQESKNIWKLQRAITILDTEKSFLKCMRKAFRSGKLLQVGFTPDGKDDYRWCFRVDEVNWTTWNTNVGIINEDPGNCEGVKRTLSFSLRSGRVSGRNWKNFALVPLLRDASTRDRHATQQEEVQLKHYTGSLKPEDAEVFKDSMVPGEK
UniProt P0DMW0: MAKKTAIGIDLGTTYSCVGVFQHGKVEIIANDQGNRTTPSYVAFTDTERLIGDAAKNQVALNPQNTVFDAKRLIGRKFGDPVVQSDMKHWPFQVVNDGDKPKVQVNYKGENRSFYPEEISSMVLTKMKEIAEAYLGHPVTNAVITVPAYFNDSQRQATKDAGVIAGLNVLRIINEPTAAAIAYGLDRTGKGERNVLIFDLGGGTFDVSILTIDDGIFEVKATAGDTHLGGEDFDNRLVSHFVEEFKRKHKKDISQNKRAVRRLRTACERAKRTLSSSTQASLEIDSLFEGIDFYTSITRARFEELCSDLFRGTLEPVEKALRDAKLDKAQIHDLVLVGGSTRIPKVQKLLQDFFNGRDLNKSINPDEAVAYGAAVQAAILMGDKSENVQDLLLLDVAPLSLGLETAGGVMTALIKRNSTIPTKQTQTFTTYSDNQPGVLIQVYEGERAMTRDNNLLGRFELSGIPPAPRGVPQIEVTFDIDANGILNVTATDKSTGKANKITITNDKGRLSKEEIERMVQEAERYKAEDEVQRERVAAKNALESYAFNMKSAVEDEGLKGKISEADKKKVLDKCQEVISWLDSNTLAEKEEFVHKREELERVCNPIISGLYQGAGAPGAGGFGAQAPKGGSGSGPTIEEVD

These are yes or no findings as the source states them, for the method shown. Binding seen in cells or lysates may run through a third protein. Some results given as binding are weak or reduced against the parent protein; the word gives no strength.

The assay concerns the target transient receptor potential vanilloid type-1 (TRPV1) (rat (endogenous in lung)) (UniProt O35433). Kind of assay: co-IP; 100 ug of lung homogenate of rats treated in vivo with the adenoviral vector over-expressing Hsp70; precipitated with rabbit polyclonal anti-TRPV1 (1:100) overnight at 4°C, protein A/G beads; immunoblot for TRPV1 and Hsp70.

Hsp70 (from UniProt P0DMW0 1-641): the binding result is given as “binds”.
